According to patent US20230286995A1, “METABOLICALLY STABLE PYRIMIDINYL DIHYDROQUINOXALINONES AS TUBULIN POLYMERIZATION INHIBITORS” (UNIVERSITY OF TENNESSEE RESEARCH FOUNDATION, priority 2022, published 2023):

Tested on: A549
Assay: cells
Conditions: Homo sapiens, A549, read-out: IC50 ± SEM (nM) A549

Question: For `CC(=O)O[C@H]1C(=O)[C@@]2(C)[C@H]([C@H](OC(=O)c3ccccc3)[C@]3(O)C[C@H](OC(=O)[C@H](O)[C@@H](NC(=O)c4ccccc4)c4ccccc4)C(C)=C1C3(C)C)[C@]1(OC(C)=O)CO[C@@H]1C[C@@H]2O` [Paclitaxel, reference compound], which IC50 is on record?
Answer: Its IC50 is 9.8 ± 2.1 nM.
